Reference: PubChem BioAssay AID493014 (National Center for Advancing Translational Sciences (NCATS), 2011)
In all, about 340,000 compounds went through this assay and about 170 (0.05%) were called active. This list was built around the results that the source calls inconclusive (neither active nor inactive); the mix of calls is not that of the screen. Calls come from the whole dose curve; as a rule, active = well fitted inhibition curve with a large enough effect in the signal ratio, with a control signal flat (not every such curve was filed as active); inconclusive = small, poorly fitted or top-dose-only effect, or effect the other way, or a change in a side signal; inactive = flat fitted curve, though single readings scatter; the % refers to the signal ratio. Where the call is inconclusive, the potency comes from a doubtful curve fit.

test: qHTS Assay to Find Inhibitors of Chronic Active B-Cell Receptor Signaling; conditions: ABC-DLBCL IkBa-CBG/CBR reporter, luminescence ratio (green luciferase fused to IkBa over red control in TMD8 lymphoma cells), 4 h; activity change, negative = inhibition: at 46.1 µM (top of the series);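 for activity change, negative = inhibition: plate controls were basal doxycycline-induced cells for no effect and cells given 10 µM MG132 for full effect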
In short: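 TMD8 ABC-DLBCL cells carrying doxycycline-inducible green luciferase fused to IkappaBalpha plus unfused red luciferase were exposed to compounds (up to 46 uM) for 4 hrs at 37C. Activity came from the overlap-corrected green/red luminescence ratio.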
Potency is the fitted concentration of half-maximal effect.

SMILES | activity change, negative = inhibition | Potency
CC(=O)CC1(O)C(=O)N(Cc2ccccc2)c2ccccc21 (stereo not drawn) | inactive: -1.01% | 
O=C(O)c1ccccc1C(=O)Nc1cc(-c2ccccc2)[nH]n1 |  | inconclusive: 35.5 µM [falling, partial curve, poor fit]
O=C(Nc1cccc(NC(=O)c2ccc(Br)o2)c1)c1ccccc1 |  | inconclusive: 3.55 µM [falling, full curve]
CC(C)N1C(=O)S/C(=C\c2ccc(-c3ccc(Cl)c(C(=O)O)c3)o2)C1=O | inconclusive: -3.09% | 
CC1=C(CC(=O)O)c2cc(F)ccc2/C1=C\c1ccc(S(C)=O)cc1 (stereo not drawn) | inconclusive: 1.37% | 
CCN(CC)CCCNc1nc2cc(OC)c(OC)cc2c2nc(-c3cccnc3)nn12 |  | inconclusive: 16.4 µM [cytotoxic, partial curve]
CN(C)S(=O)(=O)N1CCN(CC(O)COc2ccc(-c3ccccc3)cc2)CC1 (stereo not drawn) | inconclusive: -8.06% | 
Cc1c(N=C2NN=C(c3ccc(Cl)cc3)CS2)c(=O)n(-c2ccccc2)n1C |  | inconclusive: 22.4 µM [falling, single point]
CCCC(=O)Nc1ccc2c(c1)nc(CN1CCN(C(=O)OCC)CC1)n2CC |  | inconclusive: 25.1 µM [falling, single point]
O=C(Nc1nnc(CSCc2ccccc2F)s1)c1cccc([N+](=O)[O-])c1 | inconclusive: 2.61% | 
CCOC(=O)CCC(=O)Nc1ccccc1C(N)=O | inconclusive: -0.761% | 
Cc1ccc(S(=O)(=O)Cc2cc(F)c([N+](=O)[O-])cc2[N+](=O)[O-])cc1 | inconclusive: 21.4% | 
Cc1ccc(CNC(=O)COC(=O)c2ccc(S(=O)(=O)NCc3ccco3)cc2)cc1 | inconclusive: -0.599% | 
CNc1ccccc1C(=O)OC(C)C(=O)Nc1ccc(Cl)cn1 (stereo not drawn) |  | inconclusive: 15.8 µM [rising, partial curve, poor fit]
Cc1ccc(-c2nnc(SCC(=O)N/N=C/c3ccc(C)s3)n2-c2ccc(C)cc2)cc1 | inconclusive: 0.87% | 
COc1ccc(OC)c(NC(=O)C2CCC(CNc3c(N4CCC(C)CC4)c(=O)c3=O)CC2)c1 (stereo not drawn) |  | inconclusive: 7.31 µM [falling, partial curve, poor fit]
O=C1N(c2ccccc2)C2CS(=O)(=O)CC2N1c1ccc(Br)cc1 (stereo not drawn) | inconclusive: 12.5% | 
COc1ccc2nc(Nc3nc4cc5c(cc4s3)OCO5)sc2c1 | inconclusive: 5.58% | 
CN(C)CCCNC(=O)c1cc(S(=O)(=O)N2CCOCC2)ccc1F | inconclusive: 9.43% | 
Nc1ccc(C(=O)Nc2ccc3nc(-c4ccncc4)[nH]c3c2)cc1 | inconclusive: 1.55% | 
CC(=O)OC(C)(C)/C=C/C(=O)[C@](C)(O)C1[C@H](O)C[C@@]2(C)C3CC=C4C(C=C(O[C@@H]5O[C@H](CO)[C@@H](O)[C@H](O)[C@H]5O)C(=O)C4(C)C)[C@]3(C)C(=O)C[C@]12C (stereo partly drawn) | inactive: -21.5% | 
COc1cc2[nH]c(=S)nc(NCc3cccs3)c2cc1OC | inconclusive: 21.8% | 
CC(=O)Nc1cccc(NS(=O)(=O)c2cccc3nsnc23)c1 | inconclusive: -4.32% | 
CCN(CC)CCNC(=O)CSc1c2c(nc3cc(Cl)ccc13)CCCC2 | inconclusive: 26.7% | 

Retrieved one by one from the list above:
SMILES | activity change, negative = inhibition | Potency
O=C(Nc1cccc(NC(=O)c2ccc(Br)o2)c1)c1ccccc1 |  | inconclusive: 3.55 µM [falling, full curve]
COc1ccc(OC)c(NC(=O)C2CCC(CNc3c(N4CCC(C)CC4)c(=O)c3=O)CC2)c1 (stereo not drawn) |  | inconclusive: 7.31 µM [falling, partial curve, poor fit]

Carrying on:

SMILES | activity change, negative = inhibition | Potency
CC(C)(C)c1nnc(NC(=S)Nc2ccccc2)s1 | inconclusive: 309% | 
CCOC(=O)c1cnc2ccc(C)cc2c1N(C)Cc1ccccc1 | inconclusive: -27.2% | 
COc1ccc(NC(=S)NCc2ccco2)cc1 | inconclusive: -0.0918% | 
O=C(O)C1Nc2c(O)cccc2C2C=CCC12 (stereo not drawn) | inactive: 0.488% | 
Cn1c(-c2ccccc2)cnc1NCc1ccc(-c2ccccc2)cc1 |  | inconclusive: 25.1 µM [falling, partial curve, poor fit]
COC(=O)CNC(c1ccccc1)c1cc(Br)ccc1NC(=O)CNC(=O)OCc1ccccc1 (stereo not drawn) | inconclusive: -0.645% | 
O=C(Nc1cccc(Cl)c1)c1cncn1-c1ccc(F)cc1 |  | inconclusive: 12.6 µM [falling, partial curve, poor fit]
CCN(C(=O)COC(=O)Cc1ccc(F)cc1)c1c(N)n(Cc2ccccc2)c(=O)[nH]c1=O | inconclusive: 1.44% | 
CCOC(=O)C(c1ccccc1)C(Nc1ccc(Cl)c(Cl)c1)c1ccccn1 (stereo not drawn) | inconclusive: -5.66% | 
CNc1cc([N+](=O)[O-])ccc1N/C=C/C(=O)c1ccc2c(c1)OCO2 | inactive: -2.03% | 
O=C(N/N=C/c1coc2ccccc2c1=O)c1ccccc1Br | inconclusive: -9.91% | 
COc1ccc(S(N)(=O)=O)cc1C(=O)N(C)CC(=O)Nc1ccc(N2CCOCC2)cc1 | inactive: 5.1% | 
CCOC(=O)C/C(=N\Nc1ncnc2ccccc12)c1ccccc1 |  | inconclusive: 25.1 µM [falling, single point]
COc1ccc([N+](=O)[O-])cc1CSc1ccccn1 | inactive: 7.2% | 
CCn1nc(C)c(/C=N/NC(=O)c2ccoc2C)c1C |  | inconclusive: 35.5 µM [falling, single point]
Cc1ccc2[nH]c3c(=O)n(CCN4CCOCC4)cnc3c2c1 | inactive: -4.77% | 
CC1C(=O)N2CCCc3cc(NC(=O)C(=O)NCCc4ccc(F)cc4)cc1c32 (stereo not drawn) |  | inconclusive: 23.1 µM [falling, single point]
COC(=O)N/N=C/c1ccc(-c2ccccc2Cl)o1 | inactive: 0.156% | 
O=C(CN1C(=O)C2C3C=CC(C3)C2C1=O)Nc1nc(-c2ccccn2)cs1 (stereo not drawn) |  | inconclusive: 8.2 µM [rising, partial curve]
O=C1C(Nc2ccc(O)cc2)=C/C(=N/S(=O)(=O)c2cccs2)c2ccccc21 | inconclusive: 12.1% | 
O=C(c1c[nH]c(C(=O)C(Cl)(Cl)Cl)c1)c1c(F)cccc1F | inconclusive: -17.4% | 
Cc1[nH]n(-c2cccc(Cl)c2)c(=O)c1C=NCc1ccco1 | inconclusive: 12.1% | 
CCC(OC(=O)CCc1nc2ccccc2[nH]c1=O)C(=O)c1ccccc1 (stereo not drawn) | inconclusive: 0.435% | 
Cc1nnc(SCC2=C(C(=O)O)N3C(=O)C(NC(=O)C(C)n4nc(C(F)(F)F)cc4C)C3SC2)s1 (stereo not drawn) | inconclusive: 1.45% | 
